These are yes or no findings as the source states them, for the method shown. Binding seen in cells or lysates may run through a third protein. Binding can be weak; no strength is given.
Experiments:
[1] = biological target: mNeongreen RhoGEF2 (1–619) 7A (Drosophila); test: co-IP; S2 cells coexpressing mNeongreen RhoGEF2 (1-619) constructs and EB1-mScarlet; 1 mg lysate in 50 mM tris-HCl pH 7.5, 250 mM NaCl, 1 mM EDTA, 1 mM MgCl2, 0.2% NP-40, 10% glycerol; precipitated with mNeongreen-trap magnetic agarose, 1 h, 4°C; immunoblot
[2] = biological target: mNeongreen RhoGEF2 (1–619), wild type (Drosophila); test: as above

B1: EB1-mScarlet (protein, UniProt Q9XZ57 1-290)
chain: MAVNVYSTNVTSENLSRHDMLAWVNDCLQSQFSKIEELCTGAAYCQFMDMLFPNSVPVKRVKFRTNLEHEYIQNFKILQAGFKKMSVDKIIPIDKLVKGRFQDNFEFLQWFKKFFDANYDGRDYDASAVREGAPMGFGSGAVKSLPGTAASGVSSSYRRGPSATTRPAMTSAVKPISKVLPRTNNAAPASRINACANSTGTVKKNDVSNSVNNQQIEEMSNQVMDMRINLEGLEKERDFYFSKLRDIEILCQEADDAEAHPIIQKILDILYATEDGFAPPDDAPPEDEEY
For B1, the binding [1] was “binds” and the binding [2] was “binds”.

From paper PMC9473612
